The record followed here is PMC7072909.

For at least one entry, the source does not settle the construct or the ends of the probe. For part of these data: No signal at the amounts used counts as a negative.

Series [1] deals with GST-GmFLC-like (Glycine max (soybean) cv. Huachun 5). As to the kind of experiment: competition with a labelled probe. Conditions: EMSA, LightShift Chemiluminescent EMSA kit (Pierce), 3 ug protein, 25 pmol biotin probe, pH and temperature not stated, recombinant protein, protein details: GST. In general terms: Mobility shift assays separate free from complexed probe on a gel.
Series [2] shares this test system. As to the kind of experiment: EMSA. The following applies: 3 ug protein, 25 pmol probe, LightShift Chemiluminescent EMSA kit (Pierce), 25 pmol biotin probe, pH and temperature not stated, recombinant protein, protein details: GST.

“CACTCAAGTGTTGCAAATTAATTTACAAAAAATGGT (double strand) [mutated CArG unlabeled competitor (called GCC probe in text)]”: in series [1] (unlabeled mutant did not affect binding of biotin-labeled probe), the binding result is “no binding”.
Regarding “CACTCAAGTGTTGCCAATTAATTGACAAAAAATGGT (double strand) [proGmFT2a probe (-663 to -628), biotin-labeled]”, in series [2], the binding result is “binds”.
Take “CACTCAAGTGTTGCCAATTAATTGACAAAAAATGGT (double strand) [proGmFT2a unlabeled competitor]”: the binding result in series [1] (10- to 100-fold excess over biotin-labeled probe, binding slowly weakened) is “binds”.
